For 2 molecules, binding results are on record in publication PMC6803640, “Oligomeric state, hydrodynamic properties and target recognition of human Calcium and Integrin Binding protein 2 (CIB2)” (Scientific Reports, 2019).

The chains behind the UniProt entries cited, without tags or fusion partners.
UniProt O75838: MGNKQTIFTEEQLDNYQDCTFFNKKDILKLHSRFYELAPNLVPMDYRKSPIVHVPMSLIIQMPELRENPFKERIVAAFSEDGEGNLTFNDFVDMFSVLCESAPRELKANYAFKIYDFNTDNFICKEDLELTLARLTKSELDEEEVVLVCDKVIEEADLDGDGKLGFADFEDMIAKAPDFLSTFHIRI

Assay [1] has as its target His-tagged CIB2, human (TEV protease recognition site and His tag kept) (human) (UniProt O75838). Description: SPR; His-tagged CIB2 captured by its His tag on a His-cap chip, then blocked via amine coupling; peptides injected (7.5 µM; α7B_M titrated 230 nM-30 µM); 20 mM HEPES pH 7.5, 150 mM KCl, 1 mM DTT, 1 mM Mg2+, 2 mM Ca2+, 50 µM EDTA, 0.005% Tween; bivalent analyte model and steady state analysis; apparent constants; both purified. On the technique in general: In SPR one partner is held on a chip, and binding of the other changes the refractive index at the surface.

Assay [2] concerns the target Calcium- and Integrin-Binding protein 2 (CIB2), human, untagged (human) (UniProt O75838). The assay can be described thus: SPR; untagged CIB2 immobilised at low levels (100-200 RU) on a COOH5 chip via amine coupling; 30 µM peptides injected; 20 mM HEPES pH 7.5, 150 mM KCl, 1 mM DTT, 1 mM Mg2+, 2 mM Ca2+, 50 µM EDTA, 0.005% Tween; both purified.
The target is the same in assay [3]. The assay can be described thus: cross-linking; 10 µM CIB2 incubated with 5, 10 or 20 µM peptide, then 50-fold molar excess of DSBU for 20 min at room temperature; 20 mM HEPES pH 7.5, 1 mM DTT, 1 mM Mg2+, 2 mM Ca2+; read by MALDI-TOF-MS of the intact protein; both purified.

Results are given in words; binding and its absence hold for the method and conditions named. Some entries that bind do so weakly or less than the wild type.

With LAADGHPELGPDGHPGPGTA (N-terminal acetylated) [α7B_C peptide, C-terminal region of the cytoplasmic domain of α7B integrin], the values for the binding entry in assay [1] and in assay [2] were “no binding (tested: 7.5 µM)” and “no binding (tested: 30 µM)”, respectively.
Take KEFWGLHAKPRLKLMF (N-terminal acetylated; C-terminal amidated) [α7B_Scrb peptide, same amino acid content as α7B_M but randomized sequence]: the binding result in assay [1], in assay [2] and in assay [3] was “binds weakly” each time.
